Data: the supplement of paper PMC10849652
Some of the results follow.

Sequences of proteins named here, by UniProt entry; tags and fusion partners are left off. A change or cut given only in a name is not applied to a line headed by its entry.
UniProt P42892: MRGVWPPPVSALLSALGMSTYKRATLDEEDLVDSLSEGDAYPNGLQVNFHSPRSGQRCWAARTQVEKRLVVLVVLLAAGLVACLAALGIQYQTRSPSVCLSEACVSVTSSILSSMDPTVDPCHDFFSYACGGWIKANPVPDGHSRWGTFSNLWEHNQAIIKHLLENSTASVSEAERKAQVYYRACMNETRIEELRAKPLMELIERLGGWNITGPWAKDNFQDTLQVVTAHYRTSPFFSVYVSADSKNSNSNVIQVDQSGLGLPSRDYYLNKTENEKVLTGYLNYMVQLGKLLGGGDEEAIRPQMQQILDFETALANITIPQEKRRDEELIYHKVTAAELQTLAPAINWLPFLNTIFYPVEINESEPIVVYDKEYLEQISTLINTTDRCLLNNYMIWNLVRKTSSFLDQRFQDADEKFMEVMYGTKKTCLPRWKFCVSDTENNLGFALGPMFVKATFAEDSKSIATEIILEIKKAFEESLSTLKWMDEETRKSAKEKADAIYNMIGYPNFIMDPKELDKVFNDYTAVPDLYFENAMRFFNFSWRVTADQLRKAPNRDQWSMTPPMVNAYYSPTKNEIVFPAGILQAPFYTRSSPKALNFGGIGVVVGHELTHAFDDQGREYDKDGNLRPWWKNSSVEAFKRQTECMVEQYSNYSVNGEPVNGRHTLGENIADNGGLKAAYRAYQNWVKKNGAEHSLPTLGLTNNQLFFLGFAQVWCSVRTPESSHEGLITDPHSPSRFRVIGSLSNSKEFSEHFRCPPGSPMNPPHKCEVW
UniProt Q9BQC3: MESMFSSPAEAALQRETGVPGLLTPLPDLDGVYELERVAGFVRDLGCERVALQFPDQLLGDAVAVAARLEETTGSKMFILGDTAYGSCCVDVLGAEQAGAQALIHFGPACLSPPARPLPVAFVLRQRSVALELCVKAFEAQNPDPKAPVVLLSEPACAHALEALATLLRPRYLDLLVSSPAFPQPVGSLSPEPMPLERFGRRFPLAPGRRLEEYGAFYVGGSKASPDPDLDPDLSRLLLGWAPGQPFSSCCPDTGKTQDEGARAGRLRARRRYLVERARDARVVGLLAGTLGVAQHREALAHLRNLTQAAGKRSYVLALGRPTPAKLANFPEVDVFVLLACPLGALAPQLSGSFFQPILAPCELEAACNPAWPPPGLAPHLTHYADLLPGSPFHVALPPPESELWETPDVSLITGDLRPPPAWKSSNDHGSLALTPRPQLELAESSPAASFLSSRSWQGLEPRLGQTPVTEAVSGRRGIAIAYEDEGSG
UniProt Q14126: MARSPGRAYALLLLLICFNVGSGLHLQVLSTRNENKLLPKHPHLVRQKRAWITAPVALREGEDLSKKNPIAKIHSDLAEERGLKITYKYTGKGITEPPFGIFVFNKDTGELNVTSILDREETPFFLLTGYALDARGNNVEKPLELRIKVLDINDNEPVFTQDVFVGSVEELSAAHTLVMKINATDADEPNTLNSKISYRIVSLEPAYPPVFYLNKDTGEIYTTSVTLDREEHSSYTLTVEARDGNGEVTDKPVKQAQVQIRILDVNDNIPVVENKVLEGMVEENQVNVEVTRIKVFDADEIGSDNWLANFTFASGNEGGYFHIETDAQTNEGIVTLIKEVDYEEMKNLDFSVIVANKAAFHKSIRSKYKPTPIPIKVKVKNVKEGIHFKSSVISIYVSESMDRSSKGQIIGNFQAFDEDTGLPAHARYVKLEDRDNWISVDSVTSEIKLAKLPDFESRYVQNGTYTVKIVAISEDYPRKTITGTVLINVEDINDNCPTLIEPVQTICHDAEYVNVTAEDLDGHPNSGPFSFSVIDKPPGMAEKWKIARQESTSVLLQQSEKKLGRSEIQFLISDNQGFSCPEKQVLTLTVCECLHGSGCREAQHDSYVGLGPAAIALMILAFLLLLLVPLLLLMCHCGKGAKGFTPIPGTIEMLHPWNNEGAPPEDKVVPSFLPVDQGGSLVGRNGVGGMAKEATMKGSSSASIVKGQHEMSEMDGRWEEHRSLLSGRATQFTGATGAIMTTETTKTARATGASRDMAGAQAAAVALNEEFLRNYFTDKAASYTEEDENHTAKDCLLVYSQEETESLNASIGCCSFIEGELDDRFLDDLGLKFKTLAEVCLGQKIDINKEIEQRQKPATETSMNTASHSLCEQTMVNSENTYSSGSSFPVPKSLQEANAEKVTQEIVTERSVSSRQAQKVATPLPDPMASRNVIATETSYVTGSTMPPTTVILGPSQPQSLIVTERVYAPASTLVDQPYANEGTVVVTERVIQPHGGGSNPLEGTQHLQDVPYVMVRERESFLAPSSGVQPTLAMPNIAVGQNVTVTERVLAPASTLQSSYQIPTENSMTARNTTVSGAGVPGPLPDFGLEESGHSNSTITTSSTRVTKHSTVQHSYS
UniProt Q9BTV6: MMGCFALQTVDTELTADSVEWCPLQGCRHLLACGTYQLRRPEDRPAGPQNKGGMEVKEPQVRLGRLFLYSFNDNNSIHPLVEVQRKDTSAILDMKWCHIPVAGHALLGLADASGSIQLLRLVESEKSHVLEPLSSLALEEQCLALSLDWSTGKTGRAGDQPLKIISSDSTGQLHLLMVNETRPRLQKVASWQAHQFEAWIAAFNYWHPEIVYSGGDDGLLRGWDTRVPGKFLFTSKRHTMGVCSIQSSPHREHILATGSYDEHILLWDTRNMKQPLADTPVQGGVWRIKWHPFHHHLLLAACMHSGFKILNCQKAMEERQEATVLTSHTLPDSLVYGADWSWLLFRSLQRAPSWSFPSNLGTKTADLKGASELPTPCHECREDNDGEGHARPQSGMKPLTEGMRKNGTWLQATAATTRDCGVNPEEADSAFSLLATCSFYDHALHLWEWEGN
UniProt Q96EY1: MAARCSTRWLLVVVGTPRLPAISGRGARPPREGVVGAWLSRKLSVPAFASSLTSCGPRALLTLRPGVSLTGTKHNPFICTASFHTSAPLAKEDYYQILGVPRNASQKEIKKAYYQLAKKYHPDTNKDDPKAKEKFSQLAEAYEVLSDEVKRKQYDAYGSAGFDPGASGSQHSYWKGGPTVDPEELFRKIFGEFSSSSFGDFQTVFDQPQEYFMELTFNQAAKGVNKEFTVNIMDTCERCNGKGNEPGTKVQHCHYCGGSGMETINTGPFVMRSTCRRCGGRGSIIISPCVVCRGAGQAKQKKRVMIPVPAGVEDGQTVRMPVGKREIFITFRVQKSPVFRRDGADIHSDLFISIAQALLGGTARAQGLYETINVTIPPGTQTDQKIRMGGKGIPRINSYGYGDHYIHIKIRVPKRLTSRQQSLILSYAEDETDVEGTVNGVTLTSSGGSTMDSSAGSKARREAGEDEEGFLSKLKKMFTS
UniProt Q9UBS4: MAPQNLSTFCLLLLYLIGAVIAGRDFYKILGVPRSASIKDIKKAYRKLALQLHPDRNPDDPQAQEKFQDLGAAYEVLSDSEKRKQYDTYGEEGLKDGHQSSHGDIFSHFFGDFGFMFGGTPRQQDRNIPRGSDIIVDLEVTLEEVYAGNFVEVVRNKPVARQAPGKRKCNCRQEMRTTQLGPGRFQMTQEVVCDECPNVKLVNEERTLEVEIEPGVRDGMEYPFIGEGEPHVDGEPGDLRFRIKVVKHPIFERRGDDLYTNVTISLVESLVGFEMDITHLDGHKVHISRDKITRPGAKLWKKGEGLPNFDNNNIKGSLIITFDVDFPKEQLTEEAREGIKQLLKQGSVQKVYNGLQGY
UniProt P33316: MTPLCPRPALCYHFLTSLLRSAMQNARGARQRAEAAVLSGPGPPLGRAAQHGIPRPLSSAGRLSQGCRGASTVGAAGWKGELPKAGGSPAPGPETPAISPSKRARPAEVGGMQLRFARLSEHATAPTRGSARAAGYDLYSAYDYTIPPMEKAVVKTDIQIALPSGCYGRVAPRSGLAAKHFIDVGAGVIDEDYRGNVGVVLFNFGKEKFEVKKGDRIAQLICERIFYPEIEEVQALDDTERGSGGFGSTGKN
UniProt Q9NZJ0: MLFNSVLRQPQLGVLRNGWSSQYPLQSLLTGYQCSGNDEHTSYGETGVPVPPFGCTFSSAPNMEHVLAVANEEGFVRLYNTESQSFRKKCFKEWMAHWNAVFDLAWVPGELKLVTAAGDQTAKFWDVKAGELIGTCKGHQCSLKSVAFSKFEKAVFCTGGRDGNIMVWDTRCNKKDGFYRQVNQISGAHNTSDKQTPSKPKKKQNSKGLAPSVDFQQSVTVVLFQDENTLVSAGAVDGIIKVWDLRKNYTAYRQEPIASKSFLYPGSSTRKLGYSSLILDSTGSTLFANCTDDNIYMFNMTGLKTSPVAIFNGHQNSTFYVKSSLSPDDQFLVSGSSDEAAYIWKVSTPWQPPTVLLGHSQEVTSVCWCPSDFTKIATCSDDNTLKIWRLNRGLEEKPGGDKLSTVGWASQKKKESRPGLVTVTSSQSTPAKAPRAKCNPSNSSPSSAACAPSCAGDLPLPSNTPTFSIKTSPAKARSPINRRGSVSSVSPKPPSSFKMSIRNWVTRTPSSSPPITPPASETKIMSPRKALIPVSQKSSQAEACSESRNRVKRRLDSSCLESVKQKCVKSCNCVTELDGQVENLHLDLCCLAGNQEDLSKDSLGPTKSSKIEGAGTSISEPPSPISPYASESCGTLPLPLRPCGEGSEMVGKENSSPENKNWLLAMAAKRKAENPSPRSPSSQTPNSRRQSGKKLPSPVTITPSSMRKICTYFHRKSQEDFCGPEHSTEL
UniProt Q14919: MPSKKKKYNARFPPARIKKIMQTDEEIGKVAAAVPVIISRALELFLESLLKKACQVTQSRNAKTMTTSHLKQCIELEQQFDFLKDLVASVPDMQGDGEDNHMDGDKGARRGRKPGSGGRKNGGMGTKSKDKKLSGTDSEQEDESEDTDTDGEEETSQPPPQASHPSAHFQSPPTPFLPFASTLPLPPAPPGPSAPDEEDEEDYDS
UniProt Q9UKB3: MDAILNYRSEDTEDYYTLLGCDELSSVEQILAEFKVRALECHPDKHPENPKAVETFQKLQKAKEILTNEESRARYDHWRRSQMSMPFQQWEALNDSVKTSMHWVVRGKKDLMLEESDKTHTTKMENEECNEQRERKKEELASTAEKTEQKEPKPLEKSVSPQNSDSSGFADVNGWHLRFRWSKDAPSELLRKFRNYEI
UniProt Q7L8W6: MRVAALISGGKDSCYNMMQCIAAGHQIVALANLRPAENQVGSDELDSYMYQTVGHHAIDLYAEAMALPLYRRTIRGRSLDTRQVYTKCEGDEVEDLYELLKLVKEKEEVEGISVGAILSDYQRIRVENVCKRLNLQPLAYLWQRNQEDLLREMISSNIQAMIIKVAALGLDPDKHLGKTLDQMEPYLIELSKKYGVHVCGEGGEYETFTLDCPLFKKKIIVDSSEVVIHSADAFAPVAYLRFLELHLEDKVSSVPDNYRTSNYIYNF
UniProt P30084: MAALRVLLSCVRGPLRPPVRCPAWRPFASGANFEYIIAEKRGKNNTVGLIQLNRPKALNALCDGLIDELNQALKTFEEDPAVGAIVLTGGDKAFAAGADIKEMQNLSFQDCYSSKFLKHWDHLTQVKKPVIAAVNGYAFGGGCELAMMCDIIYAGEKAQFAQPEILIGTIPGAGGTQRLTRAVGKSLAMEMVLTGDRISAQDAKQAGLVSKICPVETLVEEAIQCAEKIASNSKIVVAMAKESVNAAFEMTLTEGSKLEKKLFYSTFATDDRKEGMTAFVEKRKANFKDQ
UniProt Q02487, whole entry, looked up: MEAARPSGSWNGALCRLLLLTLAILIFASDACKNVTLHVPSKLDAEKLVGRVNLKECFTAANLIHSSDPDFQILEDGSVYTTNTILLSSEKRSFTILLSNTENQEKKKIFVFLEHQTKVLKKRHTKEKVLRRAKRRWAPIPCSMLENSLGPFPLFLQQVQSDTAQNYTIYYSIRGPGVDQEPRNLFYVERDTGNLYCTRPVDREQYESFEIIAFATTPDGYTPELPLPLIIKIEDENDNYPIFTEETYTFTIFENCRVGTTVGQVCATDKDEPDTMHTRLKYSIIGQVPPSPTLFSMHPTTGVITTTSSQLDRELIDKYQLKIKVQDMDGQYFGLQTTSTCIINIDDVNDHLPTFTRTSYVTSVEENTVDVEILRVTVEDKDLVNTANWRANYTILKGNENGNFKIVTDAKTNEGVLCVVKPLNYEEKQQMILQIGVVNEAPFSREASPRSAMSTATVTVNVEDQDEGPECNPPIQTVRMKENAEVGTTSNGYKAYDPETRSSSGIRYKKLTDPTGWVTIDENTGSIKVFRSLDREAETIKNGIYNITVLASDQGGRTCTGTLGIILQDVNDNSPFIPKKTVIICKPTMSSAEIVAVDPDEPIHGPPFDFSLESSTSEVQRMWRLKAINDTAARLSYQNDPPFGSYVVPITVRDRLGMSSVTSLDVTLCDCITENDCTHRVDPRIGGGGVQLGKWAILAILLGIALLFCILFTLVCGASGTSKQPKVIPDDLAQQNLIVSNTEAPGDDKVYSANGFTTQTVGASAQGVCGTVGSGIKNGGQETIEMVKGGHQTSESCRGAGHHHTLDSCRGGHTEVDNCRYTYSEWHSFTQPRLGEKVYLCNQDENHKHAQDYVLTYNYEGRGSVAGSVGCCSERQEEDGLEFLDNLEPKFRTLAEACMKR

The targets below were run with Cc1cc(Nc2cc(N3CCN(C)CC3)nc(Sc3ccc(NC(=O)C4CC4)cc3)n2)n[nH]1 [tozasertib] (assay: log2 fold change, soluble protein after heating vs DMSO (PISA); higher = thermal stabilisation; K562 cells, 10 uM, 30 min; active = over 0.2 and 3.5 SD of the protein, either way, in both replicates (recomputed)).
Outline: (§1)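 K562 cells (2×10^6 cells/mL) were treated with 10 μM compound for 30 min, and aliquots were heated for 3 min over 48°C-58°C. Pooled aliquots were extracted in PBS with 0.5% NP-40 at 4°C, and the supernatant after 21,000xg for 90 min was measured by TMTpro 16plex LC-MS/MS with channel sums equalised. Reported thermal stability, relative to control samples and from duplicates, is a log2 fold change.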
For DNAJC9 (UniProt Q8WXX5), the log2 fold change was inactive: 0.018. ECI1 (UniProt P42126) was tested, and the log2 fold change was inactive: 0.025. With ECE1 (UniProt P42892) the log2 fold change was inactive: 0.004. For DNAJB4 (UniProt Q9UDY4), the log2 fold change was inactive: -0.037. In the case of DNAJC17 (UniProt Q9NVM6), the log2 fold change was inactive: -0.03. DPH2 (UniProt Q9BQC3) was tested, and the log2 fold change was inactive: -0.022. EDEM3 (UniProt Q9BZQ6) was tested, and the log2 fold change was inactive: 0.03. In the case of DSTN (UniProt P60981), the log2 fold change was inactive: 0.035. DNAJC3 (UniProt Q13217) was tested, and the log2 fold change was inactive: 0.014. With DOCK11 (UniProt Q5JSL3) the log2 fold change was inactive: -0.011. DSG2 (UniProt Q14126) was tested, and the log2 fold change was inactive: -0.033. EDF1 (UniProt O60869) was tested, and the log2 fold change was inactive: -0.047. DNAJC11 (UniProt Q9NVH1) was tested, and the log2 fold change was inactive: 0.017. DPH7 (UniProt Q9BTV6) was tested, and the log2 fold change was inactive: -0.025. DNAJA3 (UniProt Q96EY1) was tested, and the log2 fold change was inactive: -0.015. For DUSP23 (UniProt Q9BVJ7), the log2 fold change was inactive: 0.064. DST (UniProt Q03001) was tested, and the log2 fold change was inactive: -0.252. DR1 (UniProt Q01658) was tested, and the log2 fold change was inactive: -0.003. In the case of EBAG9 isoform 2 (UniProt O00559), the log2 fold change was inactive: 0.023. In the case of DNAJC8 (UniProt O75937), the log2 fold change was inactive: 0.029. With DNAJB11 (UniProt Q9UBS4) the log2 fold change was inactive: -0.002. For DUT (UniProt P33316), the log2 fold change was inactive: -0.045. With DTL (UniProt Q9NZJ0) the log2 fold change was inactive: 0.01. For DRAP1 isoform 2 (UniProt Q14919), the log2 fold change was inactive: 0.005. In the case of DNAJC12 (UniProt Q9UKB3), the log2 fold change was inactive: 0.039. For DNAJC10 (UniProt Q8IXB1), the log2 fold change was inactive: -0.021. DPH6 (UniProt Q7L8W6) was tested, and the log2 fold change was inactive: -0.036. DPH1 (UniProt Q9BZG8) was tested, and the log2 fold change was inactive: -0.003. DPP7 (UniProt Q9UHL4) was tested, and the log2 fold change was inactive: -0.036. With ECHS1 (UniProt P30084) the log2 fold change was inactive: -0.026. EDARADD (UniProt Q8WWZ3) was tested, and the log2 fold change was inactive: 0.035. With DTD1 (UniProt Q8TEA8) the log2 fold change was inactive: -0.054. In the case of DSC2 (UniProt Q02487), the log2 fold change was inactive: -0.108.

Each target was assayed with Cc1cc(SCc2sc(-c3ccc(C(F)(F)F)cc3)nc2C)ccc1OCC(=O)O in the same assay as above.
Outline: as §1
In the case of DNAJC9 (UniProt Q8WXX5), the log2 fold change was inactive: -0.007. ECI1 (UniProt P42126) was tested, and the log2 fold change was inactive: 0.005. ECE1 (UniProt P42892) was tested, and the log2 fold change was inactive: 0.064. With DNAJB4 (UniProt Q9UDY4) the log2 fold change was inactive: 0.052. In the case of DNAJC17 (UniProt Q9NVM6), the log2 fold change was inactive: 0.047. With DPH2 (UniProt Q9BQC3) the log2 fold change was inactive: 0.05. With EDEM3 (UniProt Q9BZQ6) the log2 fold change was inactive: 0.039. In the case of DSTN (UniProt P60981), the log2 fold change was inactive: 0.028. With DNAJC3 (UniProt Q13217) the log2 fold change was inactive: 0.009. In the case of DOCK11 (UniProt Q5JSL3), the log2 fold change was inactive: 0.105. For DSG2 (UniProt Q14126), the log2 fold change was inactive: -0.016. With EDF1 (UniProt O60869) the log2 fold change was inactive: -0.022. For DNAJC11 (UniProt Q9NVH1), the log2 fold change was inactive: 0.005. In the case of DPH7 (UniProt Q9BTV6), the log2 fold change was inactive: -0.04. In the case of DNAJA3 (UniProt Q96EY1), the log2 fold change was inactive: 0.065. In the case of DUSP23 (UniProt Q9BVJ7), the log2 fold change was inactive: -0.009. For DST (UniProt Q03001), the log2 fold change was inactive: -0.072. In the case of DR1 (UniProt Q01658), the log2 fold change was inactive: 0.011. EBAG9 isoform 2 (UniProt O00559) was tested, and the log2 fold change was inactive: -0.091. For DNAJC8 (UniProt O75937), the log2 fold change was inactive: 0.05. In the case of DNAJB11 (UniProt Q9UBS4), the log2 fold change was inactive: -0.011. For DUT (UniProt P33316), the log2 fold change was inactive: 0.011. DTL (UniProt Q9NZJ0) was tested, and the log2 fold change was inactive: 0.099. For DRAP1 isoform 2 (UniProt Q14919), the log2 fold change was inactive: -0.006. With DNAJC12 (UniProt Q9UKB3) the log2 fold change was inactive: -0.046. DNAJC10 (UniProt Q8IXB1) was tested, and the log2 fold change was inactive: 0.045. With DPH6 (UniProt Q7L8W6) the log2 fold change was inactive: 0.07. In the case of DPH1 (UniProt Q9BZG8), the log2 fold change was inactive: 0. For DPP7 (UniProt Q9UHL4), the log2 fold change was inactive: -0.052. ECHS1 (UniProt P30084) was tested, and the log2 fold change was inactive: 0.044. For EDARADD (UniProt Q8WWZ3), the log2 fold change was inactive: 0.051. DTD1 (UniProt Q8TEA8) was tested, and the log2 fold change was inactive: 0. In the case of DSC2 (UniProt Q02487), the log2 fold change was inactive: -0.201.

These targets were tested with Cc1ccc(-n2nc(C(C)(C)C)cc2NC(=O)Nc2ccc(OCCN3CCOCC3)c3ccccc23)cc1 [doramapimod] in the same assay as above.
Outline: as §1
With DNAJC9 (UniProt Q8WXX5) the log2 fold change was inactive: -0.062. With ECI1 (UniProt P42126) the log2 fold change was inactive: -0.011. ECE1 (UniProt P42892) was tested, and the log2 fold change was inactive: -0.106. In the case of DNAJB4 (UniProt Q9UDY4), the log2 fold change was inactive: -0.02. For DNAJC17 (UniProt Q9NVM6), the log2 fold change was inactive: -0.03. DPH2 (UniProt Q9BQC3) was tested, and the log2 fold change was inactive: 0.039. EDEM3 (UniProt Q9BZQ6) was tested, and the log2 fold change was inactive: 0.013. For DSTN (UniProt P60981), the log2 fold change was inactive: -0.017. With DNAJC3 (UniProt Q13217) the log2 fold change was inactive: 0.032. For DOCK11 (UniProt Q5JSL3), the log2 fold change was inactive: 0.013. DSG2 (UniProt Q14126) was tested, and the log2 fold change was inactive: 0.032. EDF1 (UniProt O60869) was tested, and the log2 fold change was inactive: -0.053. DNAJC11 (UniProt Q9NVH1) was tested, and the log2 fold change was inactive: -0.018. For DPH7 (UniProt Q9BTV6), the log2 fold change was inactive: 0.03. In the case of DNAJA3 (UniProt Q96EY1), the log2 fold change was inactive: -0.001. For DUSP23 (UniProt Q9BVJ7), the log2 fold change was inactive: 0.002. With DST (UniProt Q03001) the log2 fold change was inactive: 0.041. DR1 (UniProt Q01658) was tested, and the log2 fold change was inactive: -0.037. EBAG9 isoform 2 (UniProt O00559) was tested, and the log2 fold change was inactive: 0.041. For DNAJC8 (UniProt O75937), the log2 fold change was inactive: -0.015. For DNAJB11 (UniProt Q9UBS4), the log2 fold change was inactive: 0.022. For DUT (UniProt P33316), the log2 fold change was inactive: -0.03. DTL (UniProt Q9NZJ0) was tested, and the log2 fold change was inactive: 0.056. For DRAP1 isoform 2 (UniProt Q14919), the log2 fold change was inactive: -0.026. With DNAJC12 (UniProt Q9UKB3) the log2 fold change was inactive: -0.012. For DNAJC10 (UniProt Q8IXB1), the log2 fold change was inactive: 0.008. In the case of DPH6 (UniProt Q7L8W6), the log2 fold change was inactive: 0.004. In the case of DPH1 (UniProt Q9BZG8), the log2 fold change was inactive: 0.014. DPP7 (UniProt Q9UHL4) was tested, and the log2 fold change was inactive: -0.01. ECHS1 (UniProt P30084) was tested, and the log2 fold change was inactive: -0.023. With EDARADD (UniProt Q8WWZ3) the log2 fold change was inactive: -0.046. With DTD1 (UniProt Q8TEA8) the log2 fold change was inactive: -0.035. In the case of DSC2 (UniProt Q02487), the log2 fold change was inactive: 0.049.
